Results are given in words; binding and its absence hold for the method and conditions named. Binding seen in cells or lysates may run through a third protein. Some results given as binding are weak or reduced against the parent protein; the word gives no strength.
Tests used:
GFP-COMMD2 [1] = biological target: GFP-COMMD2 (UniProt Q86X83); test: co-IP
GFP-COMMD2 [2] = biological target: GFP-COMMD2 (UniProt Q86X83); test: condition: only cells not challenged with TIGR4 (6B ST90 ± IL-1β, IL-1β controls); co-IP

Protein sequences, listed by entry. Tags and fused reporters are not part of them.
UniProt Q04206: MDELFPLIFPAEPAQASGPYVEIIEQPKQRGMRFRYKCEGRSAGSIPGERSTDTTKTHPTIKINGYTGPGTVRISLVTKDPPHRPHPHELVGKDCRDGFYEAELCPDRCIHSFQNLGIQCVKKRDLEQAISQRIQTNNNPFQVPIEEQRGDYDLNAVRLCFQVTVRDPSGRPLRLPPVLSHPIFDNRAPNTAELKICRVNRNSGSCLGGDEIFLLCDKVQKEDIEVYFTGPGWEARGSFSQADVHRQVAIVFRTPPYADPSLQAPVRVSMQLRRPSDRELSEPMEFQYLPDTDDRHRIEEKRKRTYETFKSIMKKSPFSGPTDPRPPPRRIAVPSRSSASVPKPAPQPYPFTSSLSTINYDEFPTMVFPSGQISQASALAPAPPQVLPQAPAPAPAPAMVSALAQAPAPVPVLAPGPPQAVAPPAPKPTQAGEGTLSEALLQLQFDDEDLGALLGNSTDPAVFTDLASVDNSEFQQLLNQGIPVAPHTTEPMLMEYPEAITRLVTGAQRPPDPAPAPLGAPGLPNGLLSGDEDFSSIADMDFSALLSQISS

Substance	binding (GFP-COMMD2 [1])	binding (GFP-COMMD2 [2])
p62/SQSTM1 (from UniProt Q13501 1-440)	binds	no binding
p65 (from UniProt Q04206 1-551)	binds	no binding

Source: article PMC13434726
